Results from article PMC10980716.
These are yes or no findings as the source states them, for the method shown. Binding can be weak; no strength is given. For part of these data: Sequences can lack the tags named with a protein. For part of these data: In cells and extracts the contact can be indirect.

Amino acid sequences for entries named in this document (tags omitted). A change or cut given only in a name is not applied to a line headed by its entry.
UniProt A0A3Q7H988: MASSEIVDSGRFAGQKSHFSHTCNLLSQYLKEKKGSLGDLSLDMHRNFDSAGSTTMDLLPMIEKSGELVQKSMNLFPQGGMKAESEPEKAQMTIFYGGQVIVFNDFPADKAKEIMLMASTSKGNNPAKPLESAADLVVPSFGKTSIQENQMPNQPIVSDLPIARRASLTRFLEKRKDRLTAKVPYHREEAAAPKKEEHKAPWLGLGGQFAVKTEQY
UniProt A7XXZ0: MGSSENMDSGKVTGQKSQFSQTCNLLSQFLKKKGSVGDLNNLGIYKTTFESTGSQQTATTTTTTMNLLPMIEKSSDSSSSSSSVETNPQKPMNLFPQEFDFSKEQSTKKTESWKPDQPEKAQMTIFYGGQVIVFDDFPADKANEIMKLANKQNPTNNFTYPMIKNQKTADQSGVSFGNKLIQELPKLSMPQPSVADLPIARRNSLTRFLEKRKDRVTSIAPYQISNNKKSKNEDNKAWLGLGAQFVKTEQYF
UniProt A0A3Q7FUH8: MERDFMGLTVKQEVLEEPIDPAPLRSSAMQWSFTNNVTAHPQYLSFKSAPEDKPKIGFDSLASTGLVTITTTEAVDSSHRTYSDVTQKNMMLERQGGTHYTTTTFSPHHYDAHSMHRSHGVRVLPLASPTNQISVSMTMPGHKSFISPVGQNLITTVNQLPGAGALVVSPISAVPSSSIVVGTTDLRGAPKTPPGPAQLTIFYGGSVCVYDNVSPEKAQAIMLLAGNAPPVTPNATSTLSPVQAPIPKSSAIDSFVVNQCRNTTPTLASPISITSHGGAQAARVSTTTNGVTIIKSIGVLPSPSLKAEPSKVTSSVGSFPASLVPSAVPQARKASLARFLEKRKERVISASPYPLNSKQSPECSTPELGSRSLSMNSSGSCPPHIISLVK

How the values were obtained:
[1] = target: T1, GST-SlWRKY80 fusion protein (tomato (Solanum lycopersicum)) (UniProt K4BIZ9); assay: pull-down; GST pull-down in vitro with purified GST-SlWRKY80 and MBP-SlJAZ1; method as in ref. 72; both purified
T1 sequence: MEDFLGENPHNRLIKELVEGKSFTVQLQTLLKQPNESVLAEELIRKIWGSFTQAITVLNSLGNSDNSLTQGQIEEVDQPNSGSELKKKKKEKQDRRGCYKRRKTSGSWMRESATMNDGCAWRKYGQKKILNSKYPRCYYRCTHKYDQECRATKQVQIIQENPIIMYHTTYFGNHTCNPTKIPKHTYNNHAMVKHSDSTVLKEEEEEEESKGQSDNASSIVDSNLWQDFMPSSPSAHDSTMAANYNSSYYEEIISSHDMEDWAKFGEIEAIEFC

[2] = target: T2, SlWRKY80 in JW771 (N-Luc) (tomato (Solanum lycopersicum)) (UniProt K4BIZ9); assay: split reporter; luciferase complementary imaging (LCI): JW771 (N-Luc) and JW772 (C-Luc) constructs co-infiltrated 1:1 into tobacco leaves; 48 h; 0.5 mM D-luciferin; CCD imaging
T2 sequence: T1 sequence

[3] = target: T3, BD-SlWRKY80_(202-819bp) (tomato (Solanum lycopersicum)) (UniProt K4BIZ9); assay: two-hybrid; BD-SlWRKY80(202-819bp) in pGBKT7 co-transformed with SlJAZ CDSs in pGADT7 into Y2H yeast; growth on DDO (SD/-Trp/-Leu) and QDO (SD/-Trp/-Leu/-His/-Ade), 28°C, 3-5 days
T3 sequence: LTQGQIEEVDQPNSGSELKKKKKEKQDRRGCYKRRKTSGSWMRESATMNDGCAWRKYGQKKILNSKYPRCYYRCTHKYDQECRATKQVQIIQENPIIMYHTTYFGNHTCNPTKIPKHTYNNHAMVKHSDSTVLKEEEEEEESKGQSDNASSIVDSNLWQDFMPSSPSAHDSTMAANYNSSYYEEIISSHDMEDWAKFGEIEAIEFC

[4] = target: T4, SlWRKY80 in pSPYNE (tomato (Solanum lycopersicum)) (UniProt K4BIZ9); assay: split reporter; BiFC: pSPYNE and pSPYCE constructs co-infiltrated 1:1 into tobacco leaves; 48 h; confocal microscopy
T4 sequence: T1 sequence

| binding [3] | Substance | further results |
| --- | --- | --- |
| – | MBP-SlJAZ1 fusion protein (from UniProt A0A3Q7H988) | binding [1]: binds |
| – | SlJAZ1 in JW772 (C-Luc) (tomato (Solanum lycopersicum)) | binding [2]: binds |
| binds | SlJAZ1 in pGADT7 (tomato (Solanum lycopersicum)) | – |
| – | SlJAZ1 in pSPYCE (tomato (Solanum lycopersicum)) | binding [4]: binds |
| binds | SlJAZ2 in pGADT7 (from UniProt A7XXZ0) | – |
| binds | SlJAZ5 in pGADT7 (from UniProt A0A3Q7FUH8) | – |
